PubChem BioAssay AID1224826 | NIAID – 2016
In all, the deposit lists about 17,000 reagents; shown is a part drawn at random. About 1,110 of them (6.6%) count as active. 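Active means lowered or raised reporter signal; replicate intensities are raw and not normalised per plate.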

Assay: 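Regulators of Tlr4 signalling leading to Tnf-alpha expression in macrophages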 (primary screen)
Cell system: RAW264.7 G9 macrophages from mouse bearing reporters for p65 (GFP) and the Tnf promoter (mCherry)
Knock-down reagent: siRNA pool against mouse genes, 100 nM
Duration: 16 h of LPS stimulation, after 2 days of siRNA transfection
Treatment: bacterial lipopolysaccharide (Salmonella minnesota R595), 10 ng/ml
Detection: 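Nuclear mCherry signal of the Tnf promoter reporter measured by imaging after background removal, scaled to each plate median and turned into robust z-scores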
Reading the numbers: Tnf reporter robust z-score: higher = stronger Tnf promoter reporter signal after LPS; Tnf reporter intensity: higher = stronger Tnf promoter reporter signal
Hit rule: 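a well counts as active at a score of -1.3 or below (Tlr4 knock-down control median) or above 3 (raised signal); controls and wells holding fewer than 50 cells are excluded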
Meaning of the calls: active = Tnf reporter clearly lowered or raised; inactive = no clear change in Tnf reporter

| gene symbol | Tnf reporter robust z-score | fewer than 50 cells in well | Tnf reporter intensity, replicate 1 | Tnf reporter intensity, replicate 2 | outcome |
| --- | --- | --- | --- | --- | --- |
| Uqcrh | 0.75 | enough cells in well | 217 | 175 | inactive |
| Sst | 0.43 | enough cells in well | 345 | 81.1 | inactive |
| Oxt | 0.23 | enough cells in well | 274 | 199 | inactive |
| Zfp263 | -1.05 | enough cells in well | 88.7 | 80.1 | inactive |
| Snrpb | 1.41 | enough cells in well | 158 | 76.2 | inactive |
| Eftud2 | -1.43 | enough cells in well | 34.8 | 45.6 | active |
| Dhx30 | – | fewer than 50 cells per well; well left out of calls | 197 | 108 | inactive |
| 4933409G03Rik | 5.16 | enough cells in well | 361 | 188 | active |
| 4930412M03Rik | – | fewer than 50 cells per well; well left out of calls | 149 | 67 | inactive |
| Kat8 | -0.28 | enough cells in well | 197 | 75.4 | inactive |
| Rbm4 | 1.99 | enough cells in well | 229 | 199 | inactive |
| Adap1 | 0.95 | enough cells in well | 233 | 211 | inactive |
| Npy | 1.33 | enough cells in well | 317 | 150 | inactive |
| Rab8b | 0.37 | enough cells in well | 108 | 184 | inactive |
| Or52s19 | 1.26 | enough cells in well | 285 | 169 | inactive |
| Prss21 | -0.98 | enough cells in well | 85.4 | 87.9 | inactive |
| Cd72 | -0.42 | enough cells in well | 222 | 168 | inactive |
| Tmem14c | 1.95 | enough cells in well | 192 | 138 | inactive |
| Ptrh1 | 4.3 | enough cells in well | 370 | 98.6 | active |
| Or4k2 | -0.27 | enough cells in well | 55.9 | 106 | inactive |
| Brd10 | 1.33 | enough cells in well | 293 | 240 | inactive |
| Sacs | -1.1 | enough cells in well | 137 | 59.2 | inactive |
| Rnf215 | 0.83 | enough cells in well | 285 | 113 | inactive |
| Dusp10 | 0.58 | enough cells in well | 265 | 163 | inactive |
| Tpd52 | -0.38 | enough cells in well | 212 | 112 | inactive |
| Ankrd2 | 0.92 | enough cells in well | 291 | 226 | inactive |
| Or5p69 | -1.57 | enough cells in well | 43.3 | 52.4 | active |
| Or51a6 | -0.69 | enough cells in well | 55.5 | 88.4 | inactive |
| 4931432E15Rik | – | fewer than 50 cells per well; well left out of calls | 257 | 49.6 | inactive |
| Mrgpra4 | 3.03 | enough cells in well | 254 | 328 | active |
| Cib1 | -0.35 | enough cells in well | 244 | 159 | inactive |
| Gbx1 | 0.35 | enough cells in well | 236 | 180 | inactive |
| Fpr-rs7 | -0.57 | enough cells in well | 212 | 103 | inactive |
| Efhd1 | -1.96 | enough cells in well | 69 | 29.2 | active |
| H1f0 | -0.49 | enough cells in well | 212 | 198 | inactive |
| Lima1 | 0.35 | enough cells in well | 227 | 176 | inactive |
| Psmc3ip | – | fewer than 50 cells per well; well left out of calls | 88 | 107 | inactive |
| Cgrrf1 | -0.97 | enough cells in well | 83.6 | 131 | inactive |
| Aga | -0.41 | enough cells in well | 120 | 174 | inactive |
| Myo1d | 0.74 | enough cells in well | 216 | 245 | inactive |
| Msh6 | -0.25 | enough cells in well | 262 | 171 | inactive |
| Aspn | -0.59 | enough cells in well | 153 | 116 | inactive |
| Zdhhc3 | – | fewer than 50 cells per well; well left out of calls | 55.4 | 104 | inactive |
| Naca | -1.22 | enough cells in well | 163 | 46.3 | inactive |
| Lama4 | -0.51 | enough cells in well | 197 | 125 | inactive |
| Tph1 | – | fewer than 50 cells per well; well left out of calls | 56.9 | 69.8 | inactive |
| Mettl15 | -1.41 | enough cells in well | 153 | 47.8 | active |
| Alg13 | 1 | enough cells in well | 229 | 76.8 | inactive |
| Slc10a2 | 0.58 | enough cells in well | 300 | 147 | inactive |
| Arrb2 | – | fewer than 50 cells per well; well left out of calls | 185 | 75.5 | inactive |
| Cd200r1l | 1.31 | enough cells in well | 302 | 233 | inactive |
| Gprc5c | -1.05 | enough cells in well | 118 | 228 | inactive |
| Mylk | 0.13 | enough cells in well | 166 | 205 | inactive |
| Spns2 | 0.13 | enough cells in well | 194 | 242 | inactive |
| Prr36 | 1.31 | enough cells in well | 284 | 202 | inactive |
| Fgf7 | -0.12 | enough cells in well | 231 | 239 | inactive |
| Dnase1l1 | – | fewer than 50 cells per well; well left out of calls | 139 | 55.4 | inactive |
| Oas1b | -1.26 | enough cells in well | 115 | 86.7 | inactive |
